Results as given in PubChem BioAssay AID1347076 (National Center for Advancing Translational Sciences (NCATS), 2019).
The whole screen tested about 400,000 compounds, of which about 13,000 (3.2%) were called active. This list was built around the results that the source calls inconclusive (neither active nor inactive); the mix of calls is not that of the screen. The call rests on the fitted dose curve; in most records, active means well fitted cell-killing curve with a large enough effect; inconclusive means small, poorly fitted or top-dose-only effect, or effect the other way; inactive means flat fitted curve, though single readings scatter. Where the call is inconclusive, the potency comes from a doubtful curve fit.

Assay: qHTS assay for MDR1-selective chemotherapeutics: Primary screen using the drug-selected MDR subline cells KB-V1; further: nearly all actives have a fitted effect of over 60% in size
Settings: KB-V1 MDR cells viability, CellTiter-Glo, 72 h; activity change, negative = cytotoxicity: at 46.1 µM (top of the series)
How it was run: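 Compound-treated KB-V1 multidrug-resistant cells, 72 h, 37 degrees C; viability by CellTiter-Glo. Fitted qHTS curves give the values.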
On the % scale 0 is the no-effect control and ±100 the full control effect; potency means the concentration at half of the fitted maximal effect.

Row | Structure (SMILES) | Potency | activity change, negative = cytotoxicity
1 | O=C1NC[C@@H](c2ccccc2)OC(=O)[C@H](Cc2ccc(F)cc2)CC/C=C/C[C@H]1CC(=O)N(CCO)Cc1ccccc1 | inconclusive: 29.1 µM [cytotoxic, single point] | –
2 | CC(C(=O)NC1CCCC1)n1c(C2CC2)nc2ccccc21 (centres undefined) | inconclusive: 18.4 µM [cytotoxic, partial curve, poor fit] | –
3 | COc1ccc(NC(=O)c2nc(SC)ncc2Cl)cc1 | inactive | –
4 | Cc1ccc(C)c(C(=O)c2ccccc2NC(=O)c2ccccn2)c1 | inconclusive: 7.31 µM [cytotoxic, partial curve, poor fit] | –
5 | CCOc1cc(CNc2nn[nH]n2)ccc1OCC(=O)NC(C)(C)C | inactive | –
6 | CC1Cc2cc(-c3csc(NC(=O)Cc4ccccc4)n3)ccc2N1S(C)(=O)=O (centres undefined) | active: 3.26 µM | –
7 | CCOc1nc(NCCN2CCOCC2)nc(Nc2ccc([N+](=O)[O-])cc2)n1 | inactive | –
8 | C/C(N)=C(/C#N)C(=O)CSc1nnc(COc2ccccc2Cl)o1 | inconclusive: 14.6 µM [cytotoxic, partial curve] | –
9 | CCOC(=O)c1cc(-c2csc(-c3ccc(C(C)(C)C)cc3)n2)on1 | inconclusive: 32.6 µM [rising, single point] | –
10 | Cc1occc1C(=O)N1CCC2(CCCN(Cc3ccc(F)c(F)c3)C2)C1 (centres undefined) | inconclusive: 8.2 µM [cytotoxic, partial curve, poor fit] | –
11 | Cc1cc(C)c(NC(=O)CSc2ncc(S(=O)(=O)c3ccc(C(C)(C)C)cc3)c(=O)[nH]2)c(C)c1 | inactive | –
12 | O=C1C2CCCCN2C(=O)N1CCCCN1CCN(c2cccc(C(F)(F)F)c2)CC1 (centres undefined) | inactive | –
13 | COCCn1c(=O)[nH]c(=O)c2cc(C(=O)c3cc(Cl)ccc3O)cnc21 | inconclusive: 18.4 µM [cytotoxic, partial curve] | –
14 | COC(=O)c1c(NC(=O)CCCOc2ccccc2C)sc2c1CCC(C)C2 (centres undefined) | inconclusive: 18.4 µM [cytotoxic, single point] | –
15 | Cn1c(SCc2ccc(Br)cc2)nnc1-c1cccs1 | inconclusive: 23.1 µM [cytotoxic, partial curve, poor fit] | –
16 | CCN(CC)C(=O)Cc1cn(C)c2ccccc12 | – | inconclusive: 42.9%
17 | CCOC(=O)[C@]12CCC=C1N(Cc1ccccc1)C(=O)[C@H](CC(=O)N1CCCCC1)C2 | inconclusive: 6.51 µM [cytotoxic, partial curve] | –
18 | COc1ccc(NC(=S)N2CCCC2)c(OC)c1 | inconclusive: 29.1 µM [rising, single point] | –
19 | Cc1ccc(OCc2nc(-c3ccc(C(=O)NCCc4ccc(S(N)(=O)=O)cc4)cc3)oc2C)cc1 | inactive | –
